Results deposited as PubChem BioAssay AID1224830 (NIAID, 2016)
The deposit covers about 18,000 reagents; this is a part drawn at random. Of all reagents, about 2,900 (16%) are marked active. 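Calls are made per well; low scores hint the gene aids the LPS response, high scores that it dampens it.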 Repeated entries: four replicate wells of each siRNA pool.

Aim: 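Host factors that control LPS-induced TNF expression in human macrophages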 (primary screen)
Cells: human THP-1 monocytic leukaemia cells, TNF dual-luciferase reporter clone, PMA-differentiated to macrophage-like cells
Knock-down reagent: siRNA pool against human genes, 50 nM
Timing: LPS for 4 h, given about 3 days after siRNA transfection
Conditions: bacterial LPS (TLR4 ligand), 10 ng/ml
Measurement: 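Ratio of firefly to renilla light, scaled to the plate median and expressed as a robust z-score per replicate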
Scale: TNF reporter robust z-score: higher = stronger TNF reporter response to LPS
Hit rule: 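Each well counts as active if its z-score is over 2.8 or under -1.5; controls are left without a call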

no.	gene knocked down	TNF reporter robust z-score	activity call
1	DHX35	-0.39	inactive
2	DHX35	1.34	inactive
3	DHX35	-0.71	inactive
4	DHX35	2.15	inactive
5	CFAP418	0.85	inactive
6	CFAP418	0.55	inactive
7	CFAP418	0.41	inactive
8	CFAP418	-0.68	inactive
9	GPX6	0.54	inactive
10	GPX6	0.56	inactive
11	GPX6	0.01	inactive
12	GPX6	1.29	inactive
13	MYO1B	-1.07	inactive
14	MYO1B	-0.99	inactive
15	MYO1B	-1.18	inactive
16	MYO1B	-0.82	inactive
17	DNAJC11	-0.7	inactive
18	DNAJC11	-0.5	inactive
19	DNAJC11	-1.08	inactive
20	DNAJC11	-0.23	inactive
21	CAPRIN2	-1.59	active
22	CAPRIN2	-1.6	active
23	CAPRIN2	-1.15	inactive
24	CAPRIN2	-1.44	inactive
25	CDC37	0.93	inactive
26	CDC37	1.59	inactive
27	CDC37	1.81	inactive
28	CDC37	1.48	inactive
29	GRK2	0.19	inactive
30	GRK2	-1.15	inactive
31	GRK2	-0.82	inactive
32	LSM6	-1.41	inactive
33	LSM6	-0.98	inactive
34	LSM6	-1.27	inactive
35	LSM6	-1.71	active
36	ADGRE5	-0.36	inactive
37	ADGRE5	-0.76	inactive
38	ADGRE5	-0.99	inactive
39	ADGRE5	0.04	inactive
40	SAP30BP	-1.47	inactive
41	SAP30BP	0.25	inactive
42	SAP30BP	-0.31	inactive
43	SAP30BP	-1.24	inactive
44	PICK1	2.41	inactive
45	PICK1	3.29	active
46	PICK1	6.22	active
47	PICK1	2.89	active
48	CDKAL1	0	inactive
49	CDKAL1	-0.37	inactive
50	CDKAL1	-0.66	inactive
51	CDKAL1	-0.17	inactive
52	COMP	0.5	inactive
53	COMP	0.17	inactive
54	COMP	0.48	inactive
55	COMP	1.6	inactive
56	VMA12	-0.09	inactive
57	VMA12	-0.69	inactive
58	VMA12	0.52	inactive
59	VMA12	0.6	inactive
60	CD4	-0.48	inactive
61	CD4	0.16	inactive
62	CD4	-0.15	inactive
63	CD4	0.07	inactive
64	DUS4L	0.37	inactive
65	DUS4L	-0.35	inactive
66	DUS4L	-0.36	inactive
67	DUS4L	-0.9	inactive
68	PAGE3	-0.02	inactive
69	PAGE3	0.55	inactive
70	PAGE3	-0.11	inactive
71	PAGE3	1.46	inactive
72	ANKRD33	1.68	inactive
73	ANKRD33	0.3	inactive
74	ANKRD33	-0.63	inactive
75	ANKRD33	-0.36	inactive
76	ARSD	0.04	inactive
77	ARSD	1.14	inactive
78	ARSD	0.73	inactive
79	ARSD	1.18	inactive
80	LRP5	-0.51	inactive
81	LRP5	-0.04	inactive
82	LRP5	-1.06	inactive
83	LRP5	0.01	inactive
84	S100A14	-1.04	inactive
85	S100A14	-0.11	inactive
86	S100A14	-0.59	inactive
87	S100A14	-0.25	inactive
88	BHLHE41	0.95	inactive
89	BHLHE41	0.8	inactive
90	BHLHE41	0.29	inactive
91	BHLHE41	1.34	inactive
92	SBDS	1.7	inactive
93	SBDS	1.79	inactive
94	SBDS	1.1	inactive
95	SBDS	2.16	inactive
96	TTLL11	-0.13	inactive
97	TTLL11	-0.01	inactive
98	TTLL11	0.23	inactive
99	TTLL11	1.18	inactive
100	SORL1	-1.69	active
101	SORL1	-0.95	inactive
102	SORL1	-1.43	inactive
103	SORL1	-1.01	inactive
104	REP15	-0.58	inactive
105	REP15	-0.09	inactive
106	REP15	-0.48	inactive
107	REP15	-0.25	inactive
108	IL6ST	0.66	inactive
109	IL6ST	0.64	inactive
110	IL6ST	1.57	inactive
111	IL6ST	1.46	inactive
112	KRT36	-0.45	inactive
113	KRT36	0.49	inactive
114	KRT36	0.46	inactive
115	KRT36	0.83	inactive
116	ADPRS	-1.19	inactive
117	ADPRS	-1.17	inactive
118	ADPRS	-0.49	inactive
119	ADPRS	-0.28	inactive
120	HARS2	-1.61	active
121	HARS2	-1.17	inactive
122	HARS2	-1.69	active
123	HARS2	-1.75	active
124	OR4C3	-0.37	inactive
125	OR4C3	-0.71	inactive
126	OR4C3	-1.15	inactive
127	OR4C3	-0.4	inactive
128	PGCKA1	-0.62	inactive
129	PGCKA1	-0.7	inactive
130	PGCKA1	0.15	inactive
131	PGCKA1	0.64	inactive
132	CCDC184	-0.26	inactive
133	CCDC184	3.74	active
134	CCDC184	0.94	inactive
135	CCDC184	0.04	inactive
136	ZNF571	-0.75	inactive
137	ZNF571	-1.01	inactive
138	ZNF571	-1.22	inactive
139	ZNF571	-0.47	inactive
140	MYOD1	0.46	inactive
141	MYOD1	0.61	inactive
142	MYOD1	0.85	inactive
143	MYOD1	1.26	inactive

Targets above whose gene name starts with A or a:
gene knocked down	TNF reporter robust z-score	activity call
ADGRE5	-0.36	inactive
ADGRE5	-0.76	inactive
ADGRE5	-0.99	inactive
ADGRE5	0.04	inactive
ANKRD33	1.68	inactive
ANKRD33	0.3	inactive
ANKRD33	-0.63	inactive
ANKRD33	-0.36	inactive
ARSD	0.04	inactive
ARSD	1.14	inactive
ARSD	0.73	inactive
ARSD	1.18	inactive
ADPRS	-1.19	inactive
ADPRS	-1.17	inactive
ADPRS	-0.49	inactive
ADPRS	-0.28	inactive
